Results taken from patent US20210238292A1 (VACCINEX, published 2021).
Numbering of substitutions follows the chain as printed. These are yes or no findings as the source states them, for the method shown. Some binding calls cover weakened binding; strength is not graded here. Values belong to the binder of their own block, whether it stands above or below them.

Amino acid sequences for entries named in this document (tags omitted). A change or cut given only in a name is not applied to a line headed by its entry. Chains listed by the source or under a name are the forms on record and can include a tag or linker. Residues count along the entry.
cynomolgus monkey CCR8 expressed on cells (G7NYJ2, form named): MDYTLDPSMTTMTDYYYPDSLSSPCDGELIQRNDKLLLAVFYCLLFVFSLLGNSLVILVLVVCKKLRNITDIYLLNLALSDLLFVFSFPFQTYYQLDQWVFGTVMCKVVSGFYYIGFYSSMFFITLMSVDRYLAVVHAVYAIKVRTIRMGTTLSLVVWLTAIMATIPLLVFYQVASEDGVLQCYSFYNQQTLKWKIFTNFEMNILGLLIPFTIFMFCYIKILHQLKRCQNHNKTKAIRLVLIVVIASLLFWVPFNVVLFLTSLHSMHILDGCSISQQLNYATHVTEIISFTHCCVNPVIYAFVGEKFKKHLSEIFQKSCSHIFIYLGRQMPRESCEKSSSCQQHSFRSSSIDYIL
UniProt Q06481, residues 32-763: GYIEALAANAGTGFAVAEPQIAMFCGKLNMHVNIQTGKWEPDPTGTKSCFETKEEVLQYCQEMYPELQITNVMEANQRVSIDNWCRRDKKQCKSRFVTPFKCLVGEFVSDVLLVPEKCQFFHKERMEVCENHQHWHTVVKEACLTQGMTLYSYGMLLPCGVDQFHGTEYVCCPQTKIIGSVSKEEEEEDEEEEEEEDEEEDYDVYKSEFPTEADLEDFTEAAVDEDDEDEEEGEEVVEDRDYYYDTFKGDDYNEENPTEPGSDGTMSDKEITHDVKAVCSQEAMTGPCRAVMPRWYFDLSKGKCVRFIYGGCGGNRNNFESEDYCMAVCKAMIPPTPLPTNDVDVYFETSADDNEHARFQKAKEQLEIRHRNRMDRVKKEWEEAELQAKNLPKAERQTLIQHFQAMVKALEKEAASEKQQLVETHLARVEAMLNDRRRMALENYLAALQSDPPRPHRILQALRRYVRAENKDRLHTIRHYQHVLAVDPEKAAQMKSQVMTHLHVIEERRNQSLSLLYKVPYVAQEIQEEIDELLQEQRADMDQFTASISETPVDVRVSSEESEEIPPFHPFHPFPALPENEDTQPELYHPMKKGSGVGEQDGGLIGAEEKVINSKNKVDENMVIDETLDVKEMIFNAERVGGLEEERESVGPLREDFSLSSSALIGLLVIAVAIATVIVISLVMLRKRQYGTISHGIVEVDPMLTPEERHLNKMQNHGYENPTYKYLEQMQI

What was measured:
[1] = biological target: T1, Human CCR8-ECD-Fc (human); assay: binding to HuCCR8-ECD-Fc protein, graded
T1 construct: also called HuCCR8-ECD-Fc; huCC8-ECD-Fc
T1 chain: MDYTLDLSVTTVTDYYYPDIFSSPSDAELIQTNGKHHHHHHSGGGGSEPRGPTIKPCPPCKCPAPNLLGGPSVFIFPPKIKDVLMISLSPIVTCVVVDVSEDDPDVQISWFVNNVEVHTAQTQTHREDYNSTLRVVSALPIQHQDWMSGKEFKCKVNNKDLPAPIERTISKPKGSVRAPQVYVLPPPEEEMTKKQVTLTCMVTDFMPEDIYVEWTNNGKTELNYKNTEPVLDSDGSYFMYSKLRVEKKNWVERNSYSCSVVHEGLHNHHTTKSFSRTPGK

[2] = biological target: cynomolgus monkey CCR8 expressed on cells (cynomolgus monkey) (UniProt G7NYJ2); assay: flow cytometry, cynoCCR8-293T cells, fold geomean over secondary alone
[3] = biological target: amyloid precursor-like protein 2 (APLP2) (UniProt Q06481); assay: Retrogenix screen on cells forced to express about 4,500 cell surface proteins
[4] = biological target: amyloid precursor-like protein 2 (APLP2) (UniProt Q06481); assay: on-cell Kd, antibody titration on cells expressing APLP2, flow cytometry
[5] = biological target: cynomolgus monkey CCR8 expressed on cells (cynomolgus monkey) (UniProt G7NYJ2); assay: on-cell Kd, antibody titration on cells expressing cyno CCR8, flow cytometry
[6] = biological target: cynomolgus monkey CCR8 expressed on cells (cynomolgus monkey) (UniProt G7NYJ2); assay: flow cytometry on 293T transfectants
[7] = biological target: cynomolgus monkey CCR8 expressed on cells (cynomolgus monkey) (UniProt G7NYJ2); assay: flow cytometry, dose titration on cells infected with cynomolgus monkey CCR8 lentivirus
[8] = biological target: cynomolgus monkey CCR8 expressed on cells (cynomolgus monkey) (UniProt G7NYJ2); assay: flow cytometry, CynoCCR8-293T cells, fold geomean over secondary alone
[9] = biological target: cynomolgus monkey CCR8 expressed on cells (cynomolgus monkey) (UniProt G7NYJ2); assay: flow cytometry, CyCCR8-293T cells, fold geomean over secondary alone

binding [2]: binds
B3: anti-CCR8-1-1 (antibody, V domains shown)
VH: QVQLVQSGAEVKKPGASVKVSCKASGYTFTSYYMHWVRQAPGQGLEWMGIINPSGGSTSYAQKFQGRVTMTRDTSTSTVYMELSSLRSEDTAVYYCARGVGNGFRFDYWGQGTLVT
VL: QSALTQPPSVSGSPGQSITISCTGTSSDVGTYNLVSWYQQHPGNAPKLMIYEVTKRPSGVSNRFSGSKSGNTATLTISGLQAEDEADYHCSSYAGSITHVVFGGGTKLTVL
notes: Parental-1 heavy chain with a shuffled lambda light chain; Expressed from a mammalian expression vector in CHO cells as human IgG

binding [2]: binds
B4: anti-CCR8-1-4 (antibody, V domains shown)
VH: B3 VH
VL: QSALTQPASVSGSPGQSITISCSGTSSNIGKYNLVSWYQQHPGEAPTLLIYEATKRPSGVSNRFSGSKSGNTASLTISGLQAEDEADYICSSYAGSRVFVVFGGGTKLTVL
notes: Parental-1 heavy chain with a shuffled lambda light chain; Human IgG expressed in CHO cells

binding [6]: binds
binding [8]: binds
B8: anti-CCR8-2-1 (antibody, V domains shown)
VH: EVQLLESGGGLVQPGGSLRLSCAARGFIFSGYTMLWVRQAPGKGLEWVSAITASGGRTYYADSVKGRFTISRDNSKNTLYLQMNSLRAEDTAVYYCARRFARGWFDPWGQGTLVTVSS
VL: QSVLTQPPSVSAAPGQKVTISCSGSSSNIGNNYVSWYQQLPGTAPKLLIYDNNKRPSGIPDRFSGSKSGTSATLGITGLQTGDEADYYCGTWDSSLSAWVFGGGTKLT
notes: Human IgG from a mammalian expression vector

binding [8]: binds
B13: anti-CCR8-2-2 (antibody, V domains shown)
VH: EVQLLESGGGLVQPGGSLRLSCAAGGFTFSAYTMNWVRQAPGKGLEWVSAISASGGRTYYADSVKGRFTISRDNSKNTLYLQMNSLRAEDTAVYYCARRFARGWFDPWGQGTLVT
VL: QSVLTQPPSVSAAPGQRVTISCSGSTSNIGNHYVSWYQQLPRAVPKLVIYDNDKRPSGISDRFSGSRSGTSATLDISGLQAGDEADYYCATWDYSLTAVVFGGGTKLTVL
notes: Heavy chain of anti-CCR8-2 (H23727) cross-paired with a shuffled lambda light chain; Human IgG

The remaining lines, values behind:

B1: anti-CCR8-parental-1 (antibody, V domains shown)
VH: B3 VH
VL: B3 VL with P8A, T31S, N44K, T54S, T74S, H89Y, I97S, H99F
notes: Full-length human IgG; also called parental antibody; H23188/L1037
binding [1]: binds

B2: anti-CCR8-1-5 (antibody, V domains shown)
VH: B3 VH
VL: B3 VL with T23S, T31S, H41E, N44K, M49I, T54N, T74S, I97S, H99Y
notes: as for B4
binding [2]: binds

B5: anti-CCR8-2 (antibody, V domains shown)
VH: B8 VH with R25G, I28T, G31A, L35N, T52S
VL: B8 VL
notes: Cloned into mammalian expression vectors; human IgG; also called heavy chain H23727
binding [3]: binds
binding [4]: binds
binding [5]: binds
binding [6]: binds
binding [7]: binds
binding [8]: binds

B6: anti-CCR8-2-6 (antibody, V domains shown)
VH: EVQLVESGGGLVQPGRSLRLSCAASGFTFDDYAMHWVRQAPGKGLEWVSGISWNSGSIGYADSVKGRFTISRDNSKNSLYLQMNSLRAEDTALYYCARGRVSYRESLRFDYWGQGTLVT
VL: B8 VL
notes: Human IgG
binding [6]: binds
binding [8]: binds

B7: anti-CCR8-2-3 (antibody, V domains shown)
VH: EVQLVESGGGLVQPGRSLRLSCAASGFTFDDYAMHWVRQAPGKGLEWVSGISWNSGSIGYADSVKGRFTISRDNSKNSLYLQMNSLRAEDTALYYCARGRKSYRDSLRFDYWGQGTLVTVSS
VL: B8 VL
notes: Human IgG from a mammalian expression vector in CHO cells; also called heavy chain H23499
binding [9]: binds
binding [6]: binds

B9: anti-CCR8-2-8 (antibody, V domains shown)
VH: B7 VH with K101R
VL: QSVLTQPPSVSGAPGQRVTISCTGSGSNIGNNYVSWYQQLPGTAPKMLIYDNTRRPSGIPDRFSGSKSDTSATLGITGLQTGDEADYYCGAWDSSLRMWVFGGGTKLTVL
notes: Human IgG
binding [9]: binds
binding [6]: binds

B10: anti-CCR8-2-10 (antibody, V domains shown)
VH: B7 VH
VL: QSVLTQPPSVSAAPGQKVTISCSGTSSNIGKNFVSWYQQLPGTAPKLLIYDDNKRPSGIPDRFSGSKSATSATLGITGLQTGDGADYYCGTWDSSLSAWVFGGGTKLTVL
notes: Human IgG
binding [9]: binds
binding [6]: binds

B11: anti-CCR8-2-9 (antibody, V domains shown)
VH: B7 VH
VL: B9 VL
notes: Human IgG
binding [9]: binds
binding [6]: binds

B12: anti-CCR8-2-7 (antibody, V domains shown)
VH: B7 VH with K101D, D105K
VL: B9 VL
notes: Human IgG
binding [9]: binds
binding [6]: binds
